According to patent publication US7439264B2, “Therapeutic compounds” (President and Fellows of Harvard College, priority 2002, dated 2008):

Test system: dopamine transporter (DAT)
Assay: Competition binding with [3H]WIN 35,428 at the dopamine transporter
Conditions: ratio of IC50 values
Procedure: The affinities (IC50) of the compounds for the dopamine and serotonin transporters were determined in competition studies using [3H]2β-carbomethoxy-3β-(4-fluorophenyl)-8-methyl-8-azabicyclo[3.2.1]octane ([^3H]WIN 35,428) to label the dopamine transporter and [^3H]citalopram to label the serotonin transporter. Competition studies were conducted with a fixed concentration of radioligand and a range of concentrations of the test compound. […] The cells were then exhaustively washed to remove non-covalently bound ligand and binding of cocaine (20 nM) and dopamine uptake (Vmax) were compared.

| SMILES | Selectivity SERT/DAT |
| --- | --- |
| O=C(CCC1CO1)OCC1C2CCC(CC1c1ccc(Cl)c(Cl)c1)O2 (racemic) [Compound O-1834, 3-Oxiranyl-propionic acid [3α-(3,4-dichlorophenyl)-8-oxabicyclo[3.2.1]oct-3β-yl]methyl ester] | 17 |
| C=CCCC(=O)OCC1C2CCC(CC1c1ccc(Cl)c(Cl)c1)O2 (stereo not drawn) [Compound O-1893, pent-4-enoic acid-(3α-(3,4-dichlorophenyl)-8-oxabicyclo[3.2.1]oct-2β-yl)methyl ester] | 30 |
| CC(C)CC(=O)OCC1C2CCC(CC1c1ccc(Cl)c(Cl)c1)O2 (stereo not drawn) [Compound O-2059, 3-Methylbutanoic acid-[3α-(3,4-dichlorophenyl)-8-oxabicyclo[3.2.1]oct-2β-yl]methyl ester] | 7 |
| CCCCC(=O)OCC1C2CCC(CC1c1ccc(Cl)c(Cl)c1)O2 (stereo not drawn) [Compound O-2102, Pentanoic acid-[3α-(3,4-dichlorophenyl)-8-oxabicyclo[3.2.1]oct-2β-yl]methyl ester] | 13 |
| C=CCCCOCC1C2CCC(CC1c1ccc(Cl)c(Cl)c1)O2 (stereo not drawn) [Compound O-2153, 3α-(3,4-dichlorophenyl)-2β-pent-4-enyloxymethyl-8-oxabicyclo[3.2.1]octane] | 13 |
| COC(=O)C1C(c2ccc(F)cc2)CC2CCC1N2C (stereo not drawn) [WIN 35,428, 2β-carbomethoxy-3β-(4-fluorophenyl)-8-methyl-8-azabicyclo[3.2.1]octane, reference compound] | 15 |
